For this assay, the target named is High-mobility group box 1 (mouse (endogenous in 3T3-L1)) (UniProt P63158). Description: co-IP; lysates (1000 µg) of undifferentiated and 5-day differentiated 3T3-L1 adipocytes; precipitated with anti-HMGB1 antibody overnight at 4 °C, Protein A/G-Sepharose beads, three PBS washes; blotted with anti-pCAV1, anti-CAV1 and anti-HMGB1.

Chains of the proteins cited; added tags and fusions are not shown.
UniProt P63158: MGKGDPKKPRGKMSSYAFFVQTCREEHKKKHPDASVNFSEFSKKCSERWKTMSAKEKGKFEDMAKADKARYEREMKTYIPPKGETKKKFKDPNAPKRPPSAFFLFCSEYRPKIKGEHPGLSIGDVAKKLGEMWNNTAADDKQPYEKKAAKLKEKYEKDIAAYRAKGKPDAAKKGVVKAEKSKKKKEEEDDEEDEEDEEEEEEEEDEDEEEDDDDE

Results are given in words; binding and its absence hold for the method and conditions named. Binding seen in cells or lysates may run through a third protein. Some binding calls cover weakened binding; strength is not graded here.

B1: Caveolin-1 (protein, UniProt P49817 1-178)
chain: MSGGKYVDSEGHLYTVPIREQGNIYKPNNKAMADEVTEKQVYDAHTKEIDLVNRDPKHLNDDVVKIDFEDVIAEPEGTHSFDGIWKASFTTFTVTKYWFYRLLSTIFGIPMALIWGIYFAILSFLHIWAVVPCIKSFLIEIQCISRVYSIYVHTFCDPLFEAIGKIFSNIRISTQKEI
Take B1: the binding result is on record as “binds”.

B2: Phosphorylated caveolin-1 (protein, UniProt P49817 1-178)
chain: B1 chain
modifications: phosphorylated (site not given; Src-dependent)
Take B2: the binding result is on record as “binds”.

The values above are taken from paper PMC12071352.
